The values below come from the supplement of paper PMC4635364.

Each structure is given as a SMILES string. Where a name gives a salt, the structure may show the parent alone. The list shows a part of the results. This data set is noisy: repeats of one test often differ as much as different tests do.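 Cells: ReNCell VM human fetal ventral-midbrain neural progenitors, differentiated mitogen-free. Blinded raters compared doublecortin-stained (early neurons) or tyrosine hydroxylase-stained (dopaminergic neurons) images with untreated wells, where 0 means no change. After repeats and both raters were averaged, compounds scoring 2 or above became hits for retesting.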

For the first assay, the system named is ReNCell VM. In words: neuronal differentiation score (DCX+ cell fraction vs untreated, manual image score) (score (-3 to 3)); higher = more neuronal differentiation. As to conditions: library: LOPAC; 2 uM; 2 weeks.
For `CC(C)NC[C@H](O)COc1ccc(CC(N)=O)cc1` [S(-)-Atenolol], the neuronal differentiation score is inactive: 0.
For `CCCCCCCCCCCCCCCCCCNC(=O)OCC(COP(=O)([O-])OCC[n+]1ccsc1)OC` (centres undefined), the neuronal differentiation score was inactive: 0.
Take `O=c1cc(O)cc(/C=C/c2ccc(O)c(O)c2)o1` [Hispidin]: the neuronal differentiation score was inactive: 0.
`NCCS(=O)(=O)O` [Taurine]: the neuronal differentiation score was inactive: 0.
Regarding `O=C(O)/C=C/c1cnc[nH]1` [4-Imidazoleacrylic acid], the neuronal differentiation score was inactive: 0.
Take `O=c1[nH]c(=O)c2nc3ccccc3nc2[nH]1` [Alloxazine]: the neuronal differentiation score was active: 2.

Still in this assay, the particulars now being: library: Natural; 2 uM; 2 weeks.
Consider `COc1ccc2cnoc(=O)c2c1OC` [7,8-dimethoxy-benzo[d][1,2]oxazin-1-one], for which the neuronal differentiation score was inactive: 0.
Still for that read-out and setting: the result for `COc1ccc(-c2cc3ccccc3c(=O)o2)cc1` [3-(4-methoxy-phenyl)-isochromen-1-one] reads inactive: 0; that for `COc1cc(C)c(CCC(C)=CC=CC(C)=O)c(C)c1C`, inactive: 0; that for `COc1ccc(C(=O)Oc2ccc3c(-c4ccc(OC)cc4)cc(=O)oc3c2)cc1`, inactive: 0.
Turning to `C[n+]1cc2c3c(ccc2c2ccc4cc5c(cc4c21)OCO5)OCO3` [sanguinarine], the neuronal differentiation score was inactive: 0.

The assay is the same for the next values; noted with them: library: Phytochemical; 2 uM; 2 weeks.
Take `O=c1cc(-c2ccccc2)oc2cc(O)cc(O)c12` [Chrysin]: the neuronal differentiation score was inactive: -1.
Same read-out and setting: the result for `OCc1ccccc1O[C@@H]1O[C@H](CO)[C@@H](O)[C@H](O)[C@H]1O` [Salicin] reads inactive: 0; that for `CN1[C@@H](CC(=O)c2ccccc2)CCC[C@H]1C[C@H](O)c1ccccc1` [Lobeline alpha (-) hydrochoride], inactive: 0.

The assay is the same for the next values; noted with them: library: Prestwick; 2 uM; 2 weeks.
Regarding `COc1cc(C(=O)NCc2ccc(OCCN(C)C)cc2)cc(OC)c1OC` [Trimethobenzamide hydrochloride], the neuronal differentiation score was inactive: 0.
With `CC(=O)N(O)CCCCCNC(=O)CCC(=O)N(O)CCCCCNC(=O)CCC(=O)N(O)CCCCCN` [Deferoxamine mesylate], the neuronal differentiation score was inactive: 0.
With `Fc1ccc([C@@H]2CCNC[C@H]2COc2ccc3c(c2)OCO3)cc1` [Paroxetine Hydrochloride], the neuronal differentiation score was inactive: 0.

The same assay, now with this note: library: Spectrum; 2 uM; 2 weeks.
As for `C[C@]12CC[C@@H]3c4ccc(O)cc4CC[C@H]3[C@@H]1CC[C@@H]2OC(=O)CCC1CCCC1`, the neuronal differentiation score is inactive: 0.
As for `CC(=O)Oc1cccc2c1C(=O)c1c(OC(C)=O)cc(C(=O)O)cc1C2=O`, the neuronal differentiation score was inactive: 0.
Same read-out and setting: the result for `Cc1cnc(C(=O)O)c[n+]1[O-]` reads inactive: 0; that for `COc1ccccc1OCC(O)CO` (centres undefined), inactive: 0; that for `CN1[C@@H]2CC[C@H]1C[C@@H](OC(=O)C(O)c1ccccc1)C2` (some centres undefined), inactive: -1.
Turning to `COc1ccc2[nH]c([S@@+]([O-])Cc3ncc(C)c(OC)c3C)nc2c1`, the neuronal differentiation score is inactive: 1.
Take `O=C(Oc1cccc2cccnc12)c1ccccc1`: the neuronal differentiation score was inactive: 0.
As to `CC(=O)O[C@H]1C(=O)[C@@]2(C)[C@H]([C@H](OC(=O)c3ccccc3)[C@]3(O)C[C@H](OC(=O)[C@H](O)[C@@H](NC(=O)c4ccccc4)c4ccccc4)C(C)=C1C3(C)C)[C@]1(OC(C)=O)CO[C@@H]1C[C@@H]2O`, the neuronal differentiation score is inactive: 0.
Consider `CCC(=O)NCC[C@@H]1CCc2ccc3c(c21)CCO3`, for which the neuronal differentiation score is inactive: 0.
Regarding `CNC(=O)c1c(I)c(NC(C)=O)c(I)c(C(=O)O)c1I`, the neuronal differentiation score is inactive: 0.
For the compound `O=C(NCCCN1CCOCC1)c1ccc(Cl)cc1`, the neuronal differentiation score is inactive: 0.
As for `NS(=O)(=O)c1cc2c(cc1Cl)N=C(CSCc1ccccc1)NS2(=O)=O`, the neuronal differentiation score is inactive: 0.
Turning to `C[C@]12CCC(=O)C=C1CC[C@@H]1[C@@H]2C(=O)C[C@@]2(C)[C@H]1CC[C@]2(O)C(=O)CO`, the neuronal differentiation score is inactive: 0.
`C=C1C(=O)O[C@@H]2C[C@@]3(C)CCC[C@H](C)C3=C[C@H]12`: the neuronal differentiation score was inactive: 0.
The same measure, in the same setting: in the case of `Clc1ccc2c(c1)CCc1cccnc1C2=C1CCNCC1` it was inactive: 0; in that of `CC(=O)OCC(=O)[C@@]1(O)CC[C@H]2[C@@H]3C[C@H](C)C4=CC(=O)C=C[C@]4(C)[C@H]3[C@@H](O)C[C@@]21C` [6alpha-METHYLPREDNISOLONE ACETATE], inactive: 0.
As to `OC[C@H]1O[C@@](CO)(O[C@H]2O[C@H](CO)[C@@H](O)[C@H](O)[C@H]2O)[C@@H](O[C@H]2O[C@H](CO)[C@@H](O)[C@H](O)[C@H]2O)[C@@H]1O`, the neuronal differentiation score was inactive: 0.
As for `CCOc1ccc(NC(=O)CC(C)O)cc1` (centres undefined), the neuronal differentiation score was inactive: 0.
Regarding `O=C(O)CCCC[C@@H]1SC[C@@H]2NC(=O)N[C@@H]21`, the neuronal differentiation score is inactive: 0.
For `CC1(C)CC[C@]2(C(=O)O)CC[C@]3(C)C(=CCC4[C@@]5(C)CC[C@@H](O)C(C)(C)C5CC[C@]43C)C2C1` (some centres undefined), the neuronal differentiation score was inactive: 0.
Regarding `CC(=O)SCC(Cc1ccccc1)C(=O)NCC(=O)OCc1ccccc1` (centres undefined), the neuronal differentiation score was inactive: 0.

In the next assay the test system is ReNCell VM. In words: dopaminergic neuron differentiation score (TH+ cell fraction vs untreated, manual image score) (score (0 to 3)); higher = more TH+ dopaminergic neuron differentiation. As to conditions: library: LOPAC; 2 uM; 4 weeks; BDNF 10 ng/ml + GDNF 10 ng/ml.
For `CC(C)NC[C@H](O)COc1ccc(CC(N)=O)cc1` [S(-)-Atenolol], the “dopaminergic neuron differentiation score” value is inactive: 0.
The same measure, in the same setting: the result for `CCCCCCCCCCCCCCCCCCNC(=O)OCC(COP(=O)([O-])OCC[n+]1ccsc1)OC` (centres undefined) reads inactive: 0; that for `O=c1cc(O)cc(/C=C/c2ccc(O)c(O)c2)o1` [Hispidin], inactive: 0; that for `NCCS(=O)(=O)O` [Taurine], inactive: 0.
Regarding `O=C(O)/C=C/c1cnc[nH]1` [4-Imidazoleacrylic acid], the “dopaminergic neuron differentiation score” value was inactive: 0.
Take `O=c1[nH]c(=O)c2nc3ccccc3nc2[nH]1` [Alloxazine]: the “dopaminergic neuron differentiation score” value was inactive: 0.
